# Measured values taken from the supplement of paper PMC8728848.
# The list shows a part of the results.
# How the values were obtained:
# Assay in all cases: glycan array binding signal (z-score within array); higher = stronger binding
# Conditions in all cases: glycan notation: IUPAC condensed, linker removed
# [1] = target: Gal(b1-4)GlcNAc(b1-3)Gal(b1-4)GlcNAc(b1-3)Gal(b1-4)GlcNAc(b1-2)Man(a1-3)[Gal(b1-4)GlcNAc(b1-3)Gal(b1-4)GlcNAc(b1-3)Gal(b1-4)GlcNAc(b1-2)Man(a1-6)]Man(b1-4)GlcNAc(b1-4)[Fuc(a1-6)]GlcNAc
# Procedure, shortened: (§1)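 Negative Z-scores can be read as non-binding. The Z-score is calculated within each array and then averaged across arrays of one protein sequence at different concentrations or buffers and across linkers. Arrays, 3228 in all, were curated from the Consortium for Functional Glycomics database and kept only where the protein sequence was available.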
# [2] = target: Gal(b1-4)GlcNAc(b1-3)Gal(b1-4)GlcNAc(b1-3)Gal(b1-4)GlcNAc(b1-2)[Gal(b1-4)GlcNAc(b1-3)Gal(b1-4)GlcNAc(b1-3)Gal(b1-4)GlcNAc(b1-6)]Man(a1-6)[Gal(b1-4)GlcNAc(b1-3)Gal(b1-4)GlcNAc(b1-3)Gal(b1-4)GlcNAc(b1-2)Man(a1-3)]Man(b1-4)GlcNAc(b1-4)[Fuc(a1-6)]GlcNAc
# Procedure, shortened: as §1
# [3] = target: Gal(b1-4)GlcNAc(b1-3)Gal(b1-4)GlcNAc(b1-3)Gal(b1-4)GlcNAc(b1-3)Gal(b1-4)GlcNAc(b1-2)Man(a1-3)[Gal(b1-4)GlcNAc(b1-3)Gal(b1-4)GlcNAc(b1-3)Gal(b1-4)GlcNAc(b1-3)Gal(b1-4)GlcNAc(b1-2)Man(a1-6)]Man(b1-4)GlcNAc(b1-4)GlcNAc
# Procedure, shortened: as §1
# [4] = target: Gal(b1-4)GlcNAc(b1-3)Gal(b1-4)GlcNAc(b1-3)Gal(b1-4)GlcNAc(b1-3)Gal(b1-4)GlcNAc(b1-2)Man(a1-3)[Gal(b1-4)GlcNAc(b1-3)Gal(b1-4)GlcNAc(b1-3)Gal(b1-4)GlcNAc(b1-3)Gal(b1-4)GlcNAc(b1-2)Man(a1-6)]Man(b1-4)GlcNAc(b1-4)[Fuc(a1-6)]GlcNAc
# Procedure, shortened: as §1
# [5] = target: Gal(b1-4)GlcNAc(b1-3)Gal(b1-4)GlcNAc(b1-3)Gal(b1-4)GlcNAc(b1-3)Gal(b1-4)GlcNAc(b1-2)[Gal(b1-4)GlcNAc(b1-3)Gal(b1-4)GlcNAc(b1-3)Gal(b1-4)GlcNAc(b1-3)Gal(b1-4)GlcNAc(b1-6)]Man(a1-6)[Gal(b1-4)GlcNAc(b1-3)Gal(b1-4)GlcNAc(b1-3)Gal(b1-4)GlcNAc(b1-3)Gal(b1-4)GlcNAc(b1-2)Man(a1-3)]Man(b1-4)GlcNAc(b1-4)[Fuc(a1-6)]GlcNAc
# Procedure, shortened: as §1
# [6] = target: Gal(b1-4)GlcNAc(b1-3)Gal(b1-4)GlcNAc(b1-3)Gal(b1-4)GlcNAc(b1-3)Gal(b1-4)GlcNAc(b1-3)Gal(b1-4)GlcNAc(b1-2)Man(a1-3)[Gal(b1-4)GlcNAc(b1-3)Gal(b1-4)GlcNAc(b1-3)Gal(b1-4)GlcNAc(b1-3)Gal(b1-4)GlcNAc(b1-3)Gal(b1-4)GlcNAc(b1-2)Man(a1-6)]Man(b1-4)GlcNAc(b1-4)GlcNAc
# Procedure, shortened: as §1
# [7] = target: Gal(b1-4)GlcNAc(b1-3)Gal(b1-4)GlcNAc(b1-3)Gal(b1-4)GlcNAc(b1-3)Gal(b1-4)GlcNAc(b1-3)Gal(b1-4)GlcNAc(b1-2)Man(a1-3)[Gal(b1-4)GlcNAc(b1-3)Gal(b1-4)GlcNAc(b1-3)Gal(b1-4)GlcNAc(b1-3)Gal(b1-4)GlcNAc(b1-3)Gal(b1-4)GlcNAc(b1-2)Man(a1-6)]Man(b1-4)GlcNAc(b1-4)[Fuc(a1-6)]GlcNAc
# Procedure, shortened: as §1
# [8] = target: Gal(b1-4)GlcNAc(b1-3)Gal(b1-4)GlcNAc(b1-3)Gal(b1-4)GlcNAc(b1-3)Gal(b1-4)GlcNAc(b1-3)Gal(b1-4)GlcNAc(b1-2)[Gal(b1-4)GlcNAc(b1-3)Gal(b1-4)GlcNAc(b1-3)Gal(b1-4)GlcNAc(b1-3)Gal(b1-4)GlcNAc(b1-3)Gal(b1-4)GlcNAc(b1-6)]Man(a1-6)[Gal(b1-4)GlcNAc(b1-3)Gal(b1-4)GlcNAc(b1-3)Gal(b1-4)GlcNAc(b1-3)Gal(b1-4)GlcNAc(b1-3)Gal(b1-4)GlcNAc(b1-2)Man(a1-3)]Man(b1-4)GlcNAc(b1-4)[Fuc(a1-6)]GlcNAc
# Procedure, shortened: as §1
# [9] = target: Gal(b1-4)GlcNAc(b1-3)Gal(b1-4)GlcNAc(b1-3)Gal(b1-4)GlcNAc(b1-3)Gal(b1-4)GlcNAc(b1-3)Gal(b1-4)GlcNAc(b1-3)Gal(b1-4)GlcNAc(b1-2)Man(a1-3)[Gal(b1-4)GlcNAc(b1-3)Gal(b1-4)GlcNAc(b1-3)Gal(b1-4)GlcNAc(b1-3)Gal(b1-4)GlcNAc(b1-3)Gal(b1-4)GlcNAc(b1-3)Gal(b1-4)GlcNAc(b1-2)Man(a1-6)]Man(b1-4)GlcNAc(b1-4)GlcNAc
# Procedure, shortened: as §1
# [10] = target: Gal(b1-4)GlcNAc(b1-3)Gal(b1-4)GlcNAc(b1-3)GalNAc
# Procedure, shortened: as §1
# [11] = target: Gal(b1-4)GlcNAc(b1-3)Gal(b1-4)GlcNAc(b1-3)[Gal(b1-4)GlcNAc(b1-3)Gal(b1-4)GlcNAc(b1-6)]GalNAc
# Procedure, shortened: as §1
# [12] = target: Gal(b1-4)GlcNAc(b1-3)Gal(b1-4)GlcNAc(b1-6)[Gal(b1-3)]GalNAc
# Procedure, shortened: as §1
# [13] = target: Gal(b1-4)GlcNAc(b1-3)Gal(b1-4)[Fuc(a1-3)]GlcNAc(b1-3)Gal(b1-4)[Fuc(a1-3)]GlcNAc
# Procedure, shortened: as §1
# [14] = target: Gal(b1-4)GlcNAc(b1-3)GalNAc
# Procedure, shortened: as §1
# [15] = target: Gal(b1-4)GlcNAc(b1-3)[Fuc(a1-3)GlcNAc(b1-6)]Gal(b1-4)Glc
# Procedure, shortened: as §1
# [16] = target: Gal(b1-4)GlcNAc(b1-3)[Gal(b1-4)GlcNAc(b1-6)]Gal(b1-4)GlcNAc
# Procedure, shortened: as §1
# [17] = target: Gal(b1-4)GlcNAc(b1-3)[GlcNAc(b1-6)]Gal(b1-4)GlcNAc
# Procedure, shortened: as §1
# [18] = target: Gal(b1-4)GlcNAc(b1-6)Gal(b1-4)GlcNAc
# Procedure, shortened: as §1
# [19] = target: Gal(b1-4)GlcNAc(b1-6)GalNAc
# Procedure, shortened: as §1
binder,measurement,setting,value
FliC (Clostridium difficile) (protein) MRVNTNVSALIANNQMGRNVNGQSKSMEKLSSGVRIKRAADDAAGLAISEKMRAQIKGLDQAGRNVQDGISVVQTAEGSLEETGNILQRMRTLSLQSANEINNTEEREKIADELTQLKDEIERISSSTEFNGKKLLDGTSSTIRLQVGASYGTNVSGTSNNNNEIKIQLVNTASIMASAGITTASIGSMKAGGTTGTDAAKTMVSSLDAALKSLNSSRAKLGAQQNRLESTQNNLNNTLENVTAAESRIRDTDVASEMVNLSKMNILVQASQSMLAQANQQPQGVLQLLG,glycan array binding signal (z-score),[1],0.556
same,glycan array binding signal (z-score),[2],1.78
same,glycan array binding signal (z-score),[3],1.3
same,glycan array binding signal (z-score),[4],0.078
same,glycan array binding signal (z-score),[5],0.488
same,glycan array binding signal (z-score),[6],-1.06
same,glycan array binding signal (z-score),[7],0.234
same,glycan array binding signal (z-score),[8],0.288
same,glycan array binding signal (z-score),[9],0.205
same,glycan array binding signal (z-score),[10],-0.709
same,glycan array binding signal (z-score),[11],2.33
same,glycan array binding signal (z-score),[12],0.062
same,glycan array binding signal (z-score),[13],1.17
same,glycan array binding signal (z-score),[14],-0.483
same,glycan array binding signal (z-score),[15],-0.626
same,glycan array binding signal (z-score),[16],-0.306
same,glycan array binding signal (z-score),[17],-0.24
same,glycan array binding signal (z-score),[18],-0.574
same,glycan array binding signal (z-score),[19],0.139

# 2 entries drawn at random from the list so far, as already listed:
binder,measurement,setting,value
FliC (Clostridium difficile) (protein) MRVNTNVSALIANNQMGRNVNGQSKSMEKLSSGVRIKRAADDAAGLAISEKMRAQIKGLDQAGRNVQDGISVVQTAEGSLEETGNILQRMRTLSLQSANEINNTEEREKIADELTQLKDEIERISSSTEFNGKKLLDGTSSTIRLQVGASYGTNVSGTSNNNNEIKIQLVNTASIMASAGITTASIGSMKAGGTTGTDAAKTMVSSLDAALKSLNSSRAKLGAQQNRLESTQNNLNNTLENVTAAESRIRDTDVASEMVNLSKMNILVQASQSMLAQANQQPQGVLQLLG,glycan array binding signal (z-score),[6],-1.06
same,glycan array binding signal (z-score),[1],0.556
